# Experimental data from PubChem BioAssay AID540276 (National Center for Advancing Translational Sciences (NCATS), 2011).
# “And” between values parts separate entries of the source, which are not always exact repeats. Identical values can stand only once. Hit rate of the full screen: of about 300,000 compounds, about 5,400 (1.8%) were called active. The shares of active, inactive and inconclusive entries below differ from those in the screen. Calls follow the shape of the full dose curve; tested in HEK293 cells. Potencies beside an inconclusive call are fits to weak or partial responses and may not hold up.
# Assay: qHTS for inhibitors of binding or entry into cells for Marburg Virus
# Details: Marburg virus pseudotyped entry inhibition, cell reporter; activity change, negative = inhibition: at 37.8 µM (top of the series) unless noted
# % is scaled to controls: 0 for no effect and ±100 for the full control effect; potency is read from the fitted curve at half-maximal effect.
SMILES,"activity change, negative = inhibition",Potency
CCCCCCN1C=C/C(=C\C=C(C#N)C#N)c2ccccc21,inactive: -14%,–
Oc1ccccc1C1=Nc2ccccc2N=C(c2ccco2)C1,–,"inconclusive: 4.61 µM [inhibitor, partial curve, poor fit]"
O=C(NCC1OCCc2ccccc21)c1ccc(NC(=O)c2ccc(Cl)cc2)cc1 (centres undefined),inactive: -18.5%,–
Cc1ccc(O)c(-n2nc3ccccc3n2)c1,–,"inconclusive: 14.1 µM [inhibitor, single point]"
Cc1cccc(N2CCN(Cc3nc(-c4ccc(F)cc4F)oc3C)CC2)n1,inactive: -2.74% [at 46.1 µM],–
Cc1noc(-c2ccc(Cl)cc2)c1C(=O)O/N=C(\N)c1ccc(C(C)(C)C)cc1,–,"inconclusive: 11.2 µM [inhibitor, single point]"
Cc1ccc(S(=O)(=O)Nc2cccc(C(=O)NC3CCN(Cc4ccccc4)CC3)c2)cc1F,–,"inconclusive: 10 µM [inhibitor, partial curve, poor fit]"
N/C(=N\OC(=O)CC1CCCCC1)c1ccc(Br)cc1,inactive: 0.574%,–
Cc1cc(Cl)ccc1OCC(=O)N/N=C1\CCCc2ccccc21,inactive: -11.2%,–
CCSc1nnc(NC(=O)CCc2ccccc2)s1,inactive: 1.7%,–
CC1(C)Cc2cccc(OCC(=O)NCCc3ccccc3)c2O1,–,"inconclusive: 3.55 µM [activator, single point]"
CC1CCCCC1NC(=O)CCc1nc2sc3c(c2c(=O)[nH]1)CCCC3 (centres undefined),inactive: -5.28%,–
O=C(Cn1c(=O)n2ncnc2c2c3c(sc21)CCCC3)c1ccccc1,inactive: -6.21%,–
Cc1ccc(S(=O)(=O)Oc2ccc(/C=N/NC(=O)c3nn(C)cc3Cl)cc2)cc1,–,"inconclusive: 29.1 µM [inhibitor, single point]"
CN(CC(=O)N1CCN(c2ccccn2)CC1)S(=O)(=O)c1cccc2nsnc12,–,inactive
CCN(CC)Cc1oc(-c2ccccc2)cc1C(=O)O,–,"inconclusive: 3.55 µM [activator, partial curve, poor fit]"
O=C(O)c1cccn2c(=O)c3ccccc3nc12,inactive: 3.33%,–
Cc1cccc(-n2c(SCC(N)=O)nc3c(c2=O)C2(CCCCC2)Cc2ccccc2-3)c1,–,active: 4.47 µM
Nc1ccc(C(=O)OCc2nc3c(ccc4ccccc43)[nH]2)cc1,–,"inconclusive: 7.08 µM [inhibitor, partial curve, poor fit]"
CC(C)C(=O)Nc1nc(-c2ccccc2)ns1,–,"inconclusive: 0.461 µM [activator, full curve, poor fit]"
Cc1ccc(CNC(=O)CNC(=S)N(Cc2ccccc2)Cc2cccnc2)cc1,–,"inconclusive: 10 µM [inhibitor, partial curve, poor fit]"
CCOC(=O)CSc1nnc(CNC(=O)c2cccs2)n1Cc1ccccc1,–,"inconclusive: 0.355 µM [inhibitor, full curve]"
Cc1ccc2[nH]c3c(c2c1)CN(C(=O)CN1CCCc2ccccc21)CC3,–,"inconclusive: 16.4 µM [inhibitor, partial curve, poor fit]"

SMILES,"activity change, negative = inhibition",Potency
Cc1nnc(CN(C)C(=O)c2cc(COc3ccc(F)cc3Cl)on2)o1,–,"inconclusive: 0.631 µM [activator, partial curve, poor fit]"
CCn1c(=O)c2cc(C(=O)N(CC(C)C)CC(C)C)sc2c2ccccc21,–,"inconclusive: 6.31 µM [activator, single point]"
Cc1[nH]n(-c2ccccc2)c(=O)c1N=Nc1ccccc1O,–,"inconclusive: 4.47 µM [inhibitor, partial curve, poor fit]"
COc1cc2c3nnc(-c4ccc(F)cc4)c-3cn(Cc3ccccc3F)c2cc1OC,–,"inconclusive: 10 µM [inhibitor, partial curve, poor fit]"
CC(C)CC(C(=O)NCC1CCCO1)N(C(=O)Cn1nnc(-c2ccc(F)cc2)n1)c1cccc(C(F)(F)F)c1 (centres undefined),–,"inconclusive: 32.6 µM [inhibitor, single point]"
COc1ccc(Br)cc1CNC(=O)C1CCN(C(=O)N(C)C)CC1,–,"inconclusive: 3.55 µM [inhibitor, single point]"
Cc1ccc(C23CC4CC(CC(CC(=O)N5CCOCC5)(C4)C2)C3)cc1,–,"inconclusive: 20.6 µM [inhibitor, single point]"
COc1ccc(CN2CCCN(C)CC2)c(OC)c1C,–,"inconclusive: 20 µM [inhibitor, single point]"
COC(=O)c1cc(NS(=O)(=O)c2ccc(C(C)C)cc2)ccc1N1CCOCC1,–,"inconclusive: 3.98 µM [inhibitor, full curve]"
O=[N+]([O-])c1ccc(-c2nn(-c3ccccc3)cc2/C=N/n2c(-c3cccs3)n[nH]c2=S)cc1,–,"inconclusive: 15.8 µM [activator, single point]"
O=C(NCCN1CCOCC1)C1CC(=O)N(c2cccc(C(F)(F)F)c2)C1 (centres undefined),–,"inconclusive: 5.62 µM [activator, full curve, poor fit]"
Cc1ccc(S(=O)(=O)N(CC(=O)Nc2cccc([N+](=O)[O-])c2)C2CCCCC2)cc1,–,"inconclusive: 35.5 µM [inhibitor, single point]"
O=[N+]([O-])c1ccccc1/C=N/OCc1ccccc1,–,"inconclusive: 2.82 µM [activator, full curve]"
COC(=O)c1ccccc1NC(=O)CNc1cc(Cl)ccc1N1CCOCC1,–,"inconclusive: 11.2 µM [inhibitor, partial curve, poor fit]"
O=C(c1cc(-c2ccccn2)nc2ccccc12)N1CCN(c2ncccn2)CC1,inactive: 0.228%,–
CCC1(C)Cc2c(sc3c2c(=O)n(C)c2nnc(SCCc4ccccc4)n32)CO1 (centres undefined),–,"inconclusive: 0.501 µM [inhibitor, single point]"
COc1cc(S(=O)(=O)N2CCN(c3ccccc3F)CC2)c(OC)cc1Cl,–,"inconclusive: 11.2 µM [inhibitor, partial curve, poor fit]"
Cc1ccc(S(=O)(=O)N/N=C\c2ccccc2OCc2ccccc2)cc1,–,"inconclusive: 29.1 µM [inhibitor, single point]"
O=C(Cn1cc[n+](Cc2ccccc2)c1)c1ccc([N+](=O)[O-])cc1,–,"inconclusive: 35.5 µM [inhibitor, single point]"
Cc1c(Cl)cccc1NC(=S)N1CCCN(Cc2ccc(F)cc2)C1,–,active: 3.98 µM
CCn1c(=O)cc(SCC(=O)NCc2ccco2)c2ccccc21,–,"inconclusive: 4.61 µM [inhibitor, single point]"
COc1ccccc1NC(=O)Nc1nc(CC(=O)Nc2ccc(F)cc2)cs1,inactive: -22%,–
CC12CCC(C/C1=N\N=C1\NC(=O)/C(=C\c3ccc(Cl)cc3)S1)C2(C)C (centres undefined),–,"inconclusive: 11.2 µM [inhibitor, single point]"

SMILES,"activity change, negative = inhibition",Potency
Cc1ccc(SCC(=O)Nc2ccc(F)cc2[N+](=O)[O-])cc1C,inactive: -3.5%,–
COc1cc(CNCCc2ccc(S(N)(=O)=O)cc2)ccc1OCc1ccc(Cl)cc1,–,"inconclusive: 18.3 µM [inhibitor, partial curve, poor fit]"
Cc1ccc2c(c1)CCCN2C(=O)c1ccc2c(c1)OCO2,inactive: -1.22%,–
O=c1c2ccccc2ncn1-c1ccc([N+](=O)[O-])cc1[N+](=O)[O-],–,"inconclusive: 10 µM [inhibitor, partial curve, poor fit]"
COc1ccccc1NC(=O)CSc1nnc2c3ccccc3n(C(C)C)c2n1,–,"inconclusive: 10 µM [inhibitor, partial curve, poor fit]"
CCCCCCCC/C=C\CCCCCCCC(=O)NCCO,–,"inactive and inconclusive: 10 µM [inhibitor, partial curve, poor fit]"
Cc1cc(NS(=O)(=O)c2ccc(NS(=O)(=O)c3cc(C)c(Cl)cc3Cl)cc2)no1,–,"inconclusive: 14.1 µM [activator, partial curve, poor fit]"
c1csc(-c2nc3ccccn3c2NC2CCCCC2)c1,–,"inconclusive: 22.4 µM [inhibitor, single point]"
CN(C)CCCNC(=O)C(=O)NCC1OCCN1S(=O)(=O)c1cccs1 (centres undefined),–,"inconclusive: 0.891 µM [inhibitor, single point]"
CC1(C)Cc2cccc(OCC(=O)N3CCN(c4ccccc4Cl)CC3)c2O1,inactive: 7.42%,–
O=Cc1ccc(OCc2ccc3ccccc3c2)cc1,–,"inconclusive: 0.126 µM [inhibitor, full curve, poor fit]"
N#CCSc1ncccc1-c1nc2ccccc2[nH]1,inactive: 7.02%,–
Cc1cc(C)cc(OCC(=O)O/N=C(\N)c2cccnc2)c1,inactive: 10.5% [at 46.1 µM],–
O=C1SC(c2ccccc2)=C/C1=C\N1CCCCC1,inactive: 27.9%,–
O=c1[nH]c2ccccc2nc1-c1ccc(Cl)cc1,inactive: 10% [at 46.1 µM],–
COc1cc(C2CC(=O)NC3=C2C(=O)CC(C)(C)C3)cc(OC)c1O (centres undefined),–,"inconclusive: 0.708 µM [activator, full curve, poor fit]"
CNc1nnc(-c2ccc(N(C)C)cc2)s1,–,"inconclusive: 29.1 µM [inhibitor, single point]"
CC(=NCc1cccnc1)c1c(O)n(-c2ccc(Cl)cc2)c(=O)[nH]c1=O,–,"inconclusive: 3.16 µM [inhibitor, single point]"
CCCOc1ccc(C(=O)CCN2CCN(C(=O)OCC)CC2)cc1,inactive: -27.1% [at 46.1 µM],–
CCC(CC)C(=O)Nc1ccc(-c2cn3cccnc3n2)cc1,–,"inconclusive: 35.5 µM [activator, single point]"
Cc1cc(C)cc(Nc2cc(C)nc3nncn23)c1,inactive: 6.22% [at 46.1 µM],–
Cc1ccc(N2C(=O)[C@@H]3[C@H](C2=O)[C@H]2C=CC=NN2[C@@H]3C(=O)Nc2ccccc2)cc1,inactive: 4.81%,–
COC(CNC(=O)c1cc(Sc2nnc(C)s2)nc2ccccc12)OC,–,"inconclusive: 0.501 µM [activator, full curve, poor fit]"
